Results are given in words; binding and its absence hold for the method and conditions named. Binding seen in cells or lysates may run through a third protein. These calls come from enrichment with a bait or labelling near it, and not all partners need be listed.
B1: Arhgap26 (protein, UniProt Q6ZQ82 1-814)
chain: MGLPALEFSDCCLDSPHFRETLKSHEAELDKTNKFIKELIKDGKSLISALKNLSSAKRKFADSLNEFKFQCIGDAETDDEMCIARSLQEFAAVLRNLEDERSRMIENASEVLITPLEKFRKEQIGAAREAKKKYDKETEKYCGTLEKHLNLSSKKKESQLQEADSQVDLVRQHFYEVSLEYVFKVQEVQERKMFEFVEPLLAFLQGLFTFYHHGYELAKDFGDFKTQLTISIQNTRNRFEGTRSEVESLMKKMKENPLEHKTISPYTMEGYLYVQEKRHFGTSWVKHYCTYQRDSKQITMVPFDQKSGGKGGEDESVTLKSCTRRKTDSIEKRFCFDVEAVDRPGVITMQALSEEDRRLWMEAMDGREPVYNSNRDSQSEGTAQLDSIGFSIIRKCIHAVETRGINEQGLYRIVGVNSRVQKLLSVLMDPKAASETETDICAEWEIKTVTSALKTYLRMLPGPLMMYQFQRSFIKAAKLENQETRVSEIHSLVHRLPEKNRQMLQLLMNHLANVANNHKQNLMTVANLGVVFGPTLLRPQEETVAAIMDIKFQNIVIEILIENHEKIFNTVPDVPLTNAQLHLSRKKSSDSKPPSCSKRPLTLFHAVPSTEKQEQRNSIINSSLESVSSSANSILNSSSSLQPNLNSSDSNLDVVKPSRPSSLPPNPSPTSPLSPSWPMFSAPSSPMPTSSTSSDSSPIRSVAGFVWFSVAAVVLSLAWSSLHAVFSLLVNFVPCHPNLHLLFDRPEEAVREDSSTPFRKAKALYACQAEHDSELSFTAGTVFDNVHPSQEPGWLEGTLNGKTGLIPENYVEFL
B2: Tjp2 (protein, UniProt Q9Z0U1 1-1167)
chain: MEEVIWEQYTVTLQKDSKRGFGIAVSGGRDNPHFENGETSIVISDVLPGGPADGLLQENDRVVMVNGTPMEDVLHSFAVQQLRKSGKIAAIVVKRPRKVQVAPLQGSPPLSHDDRGFEVIEEFDGRSFRSGYSERSRHSSHDMLSHSWEGNRERGRPHQRTQSRERERSRGRSLERGLDQEDYGRSRERSRGRSLERGLDRDFVSRDHSRGRSIDRDYDRDYERSYHEAYEPDYGGGYSPSYDRRAHPETRYERSRSREHLRSRSPSPESRSRHEHKGQHDPDRPIGVLLTKSKANEEYGLRLGSQIFIKEMTRTGLATKDGNLHEGDIILKINGTVTENMSLTDARKLIEKSRGKLQLVVLRDSKQTLINIPALNDSDSEVEDISEIESNRSFSPEERRQQYSDQDYHSSTEKLKERPSSREETSGRLSRMGATPTPFKSTGDITAAGVTEASREPRYQEEGPVPQPRTAPRVFLRPSPEDEAIYGPNTKMVRFKKGDSVGLRLAGGNDVGIFVAGIQEGTSAEQEGLQEGDQILKVNTQDFRGLVREDAVLYLLEIPKGETVTILAQSRADVYRDILACGRGDSFFIRSHFECEKETPQSLAFTRGEVFRVVDTLYDGKLGHWLAVRIGNELEKGLIPNKSRAEQMASVQNAQRENAGDRADFWRMRGQRSSGGVKKNLRKSREDLAAAVSVSTKFPAYEKVLLREAGFKRPVVLFGPIADIAMERLATELPDLFQTAKTEPKDAGSEKSSGVVRLNTVRQIIEQDKHALLDVTPKAVDLLNYTQWFPIVIFFNPDSRQGVKTIRQRLSPTSNKSSRKLFDQANKLKKTCSHLFTATINVNSANDGWFGSLKDSIQQQQNEAVWVSEGKMEGMDDDAEDRMSYLTAMGADYLSCDSRLISDFEDTDGEGGAYTDNELEEPAEEPLVSSITRSSEPVQHEENIRKSSPEPRAQMRRAASRDQLRDASPPPAFKPEPPKARSQNREDSFDYSKSNLPATAGSEIPGGSTKGYPPPIAAKPAFGRPILKPSTPVPMPESEEVGESTEEQEDAPRSVLGRVKIFEKMDHKAKLQRMQELQEAQNARIEIAQKHPDIYAVPIKAPKPDAGLPPHMSSRPPEPQKAPSRLYQDTRGSYGSDPEEEEYRQQLAAHSKRGYYSQPSRYRDTEL
B3: Map3k13 (protein, UniProt Q1HKZ5 1-959)
chain: MANPQEHLSCSSLPHLPLTENKTSGGRNELAAMGNHPSPKLPEDPQERGAIQSELMEITGSPISTTVLTSVSEDSRGQFENSVLQLREQDESEMTLSLGNSNTVDGENTNGPEDIKIQFSRSGSGSGGFLEGLFGCLRPVWNIIGKAYSTDYKLQQQDTWEVPFEEISELQWLGSGAQGAVFLGKFRAEEVAIKKVREQNETDIKHLRKLKHPNIIAFKGVCTQAPCYCIIMEYCAHGQLYEVLRAGRKITPRLLVDWSTGIASGMNYLHLHKIIHRDLKSPNVLVTHTDAVKISDFGTSKELSDKSTKMSFAGTVAWMAPEVIRNEPVSEKVDIWSFGVVLWELLTGEIPYKDVDSSAIIWGVGSNSLHLPVPSTCPDGFKILMKQTWQSKPRNRPSFRQTLMHLDIASADVLATPQETYFKSQAEWREEVKKHFEKIKSEGTCIHRLDEELIRRRREELRHALDIREHYERKLERANNLYMELSAIMLQLEMREKELLKREQAVEKKYPGTYKRHPVRPIIHPNAMEKLMKRKGVPHKAGVQTKRPDLLRSEGIPSTEAVPTASPLSGSPKMSTASSRSRYRSKPRHRRGNSRGSHSDFAAILKTQPAQENSPHPTYMHHTQAQCASVHQHNPLQQQYQQIPPAQPQSRHPRLNAHGQDIATCANNLRYFGPAAALRSPLSNHAQRQMPGSSPDLISTAMAADWRNSELDQDQVGPWGCCQAEPYDPCFQCRPEHSGSLDVPTTEPVGRSPDLSSSPAHNPLSGNAQGSERTGANGFSGCQSGISHQFTPPMLPQKTRPLQKSGDDSSEEEGEVDSEVEFPRRQRPHRCISSYQSYSTFSSENFSVSDGEEGNTSDHSNSPDESANRRQDRLAETLDDLLSQTPEAPIEISSHSDGLSDKECAVRRVKTQMSLGKLCAEERGYENPVQFGDSDCDSSEGECSDATVRTSKNYSSATW
B4: cGMP-dependent protein kinase 2 (protein, UniProt Q61410 1-762)
chain: MGNGSVKPKHAKHPDGHSGNLSNEALRSKVLELERELRRKDAELQEREYHLKELREQLAKQTVAIAELTEELQSKCIQLNKLQDVIHVQGGSPLQASPDKVPLDVHRKTSGLVSLHSRRGAKAGVSAEPTTRTYDLNKPPEFSFEKARVRKDSSEKKLITDALNKNQFLKRLDPQQIKDMVECMYGEKLSTGSYVIKQGEPGNHIFVLAEGRLEVFQGEKLLSSIPMWTTFGELAILYNCTRTASVKAITNVKTWALDREVFQNIMRRTAQARDEEYRNFLRSVSLLKNLPEDKLTKIIDCLEVEYYDKGDYIIREGEEGSTFFILAKGKVKVTQSTEGHDQPQLIKTLQKGEYFGEKALISDDVRSANIIAEENDVACLVIDRETFNQTVGTFDELQKYLEGYVATLNRDDEKRHAKRSMSSWKLSKALSLEMIQLKEKVARFSSTSPFQNLEIIATLGVGGFGRVELVKVKNENVAFAMKCIRKKHIVDTKQQEHVYSEKRILEELCSPFIVKLYRTFKDNKYVYMLLEACLGGELWSILRDRGSFDEPTSKFCVACVTEAFDYLHLLGIIYRDLKPENLILDADGYLKLVDFGFAKKIGSGQKTWTFCGTPEYVAPEVILNKGHDFSVDFWSLGILVYELLTGNPPFSGIDQMMTYNLILKGIEKMDFPRKITRRPEDLIRRLCRQNPTERLGNLKNGINDIKKHRWLNGFNWEGLKARSLPSPLRRELSGPIDHSYFDKYPPEKGVPPDEMSGWDKDF
B5: 14-3-3 α/β (protein, UniProt Q9CQV8 1-246)
chain: MTMDKSELVQKAKLAEQAERYDDMAAAMKAVTEQGHELSNEERNLLSVAYKNVVGARRSSWRVISSIEQKTERNEKKQQMGKEYREKIEAELQDICNDVLELLDKYLILNATQAESKVFYLKMKGDYFRYLSEVASGENKQTTVSNSQQAYQEAFEISKKEMQPTHPIRLGLALNFSVFYYEILNSPEKACSLAKTAFDEAIAELDTLNEESYKDSTLIMQLLRDNLTLWTSENQGDEGDAGEGEN
B6: 14-3-3 γ (protein, UniProt P61982 1-247)
chain: MVDREQLVQKARLAEQAERYDDMAAAMKNVTELNEPLSNEERNLLSVAYKNVVGARRSSWRVISSIEQKTSADGNEKKIEMVRAYREKIEKELEAVCQDVLSLLDNYLIKNCSETQYESKVFYLKMKGDYYRYLAEVATGEKRATVVESSEKAYSEAHEISKEHMQPTHPIRLGLALNYSVFYYEIQNAPEQACHLAKTAFDDAIAELDTLNEDSYKDSTLIMQLLRDNLTLWTSDQQDDDGGEGNN
B7: flotillin-1 (protein, UniProt O08917 1-428)
chain: MFFTCGPNEAMVVSGFCRSPPVMVAGGRVFVLPCIQQIQRISLNTLTLNVKSEKVYTRHGVPISVTGIAQVKIQGQNKEMLAAACQMFLGKTEAEIAHIALETLEGHQRAIMAHMTVEEIYKDRQKFSEQVFKVASSDLVNMGISVVSYTLKDIHDDQDYLHSLGKARTAQVQKDARIGEAEAKRDAGIREAKAKQEKVSAQCLSEIEMAKAQRDYELKKATYDIEVNTRRAQADLAYQLQVAKTKQQIEEQRVQVQVVERAQQVAVQEQEIARREKELEARVRKPAEAERYRLERLAEAEKAQLIMQAEAEAESVRMRGEAEAFAIGARARAEAEQMAKKAEAFQMYQEAAQLDMLLEKLPQVAEEISGPLTSANKITLVSSGSGTMGAAKVTGEVLDILSRLPESVERLTGVSISQVNHNKPLRTA
B8: Sorbs1 (protein, UniProt Q62417 1-1290)
chain: MSSECDVGSSKAVVNGLASGNHGPDKDMDPTKICTGKGTVTLRASSSYRGTPSSSPVSPQESPKHESKSGLEPEDPSADEWKLSSSADTNGNAQPSPLAAKGYRSVHPSLSADKPQGSPLLNEVSSSHIETDSQDFPPTSRPSSAYPSTTIVNPTIVLLQHNRDPASERRAGEQDPVPTPAELTSPGRASERRAKDASRRVVRSAQDLSDVSTDEVGIPLRNTERSKDWYKTMFKQIHKLNRDDDSDVHSPRYSFSDDTKSPLSVPRSKSEMNYIEGEKVVKRSATLPLPARSSSLKSSPERNDWEPLDKKVDTRKYRAEPKSIYEYQPGKSSVLTNEKMSRDISPEEIDLKNEPWYKFFSELEFGRPTNLEKDLSFCQAELEADLEKVETVNKSPSANSPQSSAVSPTPDITSEPPGYIYSSNFHAVKRESDGTPGGLASLENERQIYKSVLEGGDIPLQGLSGLKRPSSSASTKVDRKGGNAHMISSSSVHSRTFHTSNALGPGCKHKKPLSAAKACISEILPSKFKPRLSAPSALLQEQKSVLLPSEKAQSCENLCVSLNDSKRGLPLRVGGSIENLLMRSRRDYDSKSSSTMSLQEYGTSSRRPCPLSRKAGLHFSMFYRDMHQINRAGLSLGSISSSSVRDLASHFERSSLTLARGELGASQEGSEHIPKHTVSSRITAFEQLIQRSRSMPSLDFSGRLSKSPTPVLSRSGLTSARSAESLLESTKLRPREMDGMDSGGVYASPTCSNMADHALSFRSLVPSEPLSICSDELDHCSNVSNDSREGSGGSVHGDFPKHRLNKCKGTCPASYTRFTTIRKHEQQSSRQSDWRSDSRGDKNSLLRNIHLMSPLPFRLKKPLQQHPRQPPPSDSSESPAGQKADLPCHDPQDQPHSAGKPQVPTRLSSRHTMARLSHNSEPPLDRPAGLEDCTRAINNGNPVPYSDHGLDRNNNPQSELAAAHGDSESPRHFIPADYLESTEEFIRRRHDDKEKLLADQRRLKREQEEADIAARRHTGVIPTHHQFITNERFGDLLNIDDTAKRKSGLEMRPARAKFDFKAQTLKELPLQKGDVVYIYRQIDQNWYEGEHHGRVGIFPRTYIELLPPAEKAQPRKLAPVQVLEYGEAIAKFNFNGDTQVEMSFRKGERITLLRQVDENWYEGRIPGTSRQGIFPITYVDVLKRPLVKTPVDYIDLPYSSSPSRSATVSPQQPQAQQRRVTPDRSQPSLDLCSYQALYSYVPQNDDELELRDGDIVDVMEKCDDGWFVGTSRRTRQFGTFPGNYVKPLYL

Amino acid sequences for entries named in this document (tags omitted).
UniProt Q60857: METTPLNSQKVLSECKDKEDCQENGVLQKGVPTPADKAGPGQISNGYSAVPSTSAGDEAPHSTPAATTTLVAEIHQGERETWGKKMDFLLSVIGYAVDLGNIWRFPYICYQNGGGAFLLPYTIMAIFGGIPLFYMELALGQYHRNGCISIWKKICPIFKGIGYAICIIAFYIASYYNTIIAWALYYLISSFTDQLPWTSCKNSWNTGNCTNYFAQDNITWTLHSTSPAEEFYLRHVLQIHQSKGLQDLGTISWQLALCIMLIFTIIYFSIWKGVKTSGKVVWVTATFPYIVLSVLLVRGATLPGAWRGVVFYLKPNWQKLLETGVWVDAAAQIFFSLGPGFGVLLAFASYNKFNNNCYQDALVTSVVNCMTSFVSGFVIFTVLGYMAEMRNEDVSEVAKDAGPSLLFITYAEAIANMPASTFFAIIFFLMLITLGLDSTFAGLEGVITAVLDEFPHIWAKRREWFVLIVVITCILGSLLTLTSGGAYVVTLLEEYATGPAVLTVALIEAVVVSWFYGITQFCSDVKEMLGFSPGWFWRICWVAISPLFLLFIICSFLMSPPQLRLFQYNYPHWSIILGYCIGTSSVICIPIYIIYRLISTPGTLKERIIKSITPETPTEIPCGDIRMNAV

Target: serotonin transporter, wildtype (WT SERT) (mouse (endogenous in midbrain synaptosomes)) (UniProt Q60857)
Test: affinity purification with mass spectrometry; SERT immunoprecipitated with C-terminal anti-SERT serum #48 cross-linked to protein A Dynabeads from midbrain synaptosomes (lysed in PBS + 0.7% DDM, 4°C) of WT, SERT Ala56 and SERT KO (negative control) mice; in-gel tryptic digestion, 8-step MudPIT LC-MS/MS; label-free quantification

binding, binds:
B1
B2
B3
B4
B5
B6
B7
B8

— article PMC7295033
